Reference: PMC10866667
Results are given in words; binding and its absence hold for the method and conditions named. For some of these results: In cells and extracts the contact can be indirect. Some results given as binding are weak or reduced against the parent protein; the word gives no strength.

Protein sequences, listed by entry. Tags and fused reporters are not part of them. Residues count along the entry.
UniProt P08887, residues 20-468: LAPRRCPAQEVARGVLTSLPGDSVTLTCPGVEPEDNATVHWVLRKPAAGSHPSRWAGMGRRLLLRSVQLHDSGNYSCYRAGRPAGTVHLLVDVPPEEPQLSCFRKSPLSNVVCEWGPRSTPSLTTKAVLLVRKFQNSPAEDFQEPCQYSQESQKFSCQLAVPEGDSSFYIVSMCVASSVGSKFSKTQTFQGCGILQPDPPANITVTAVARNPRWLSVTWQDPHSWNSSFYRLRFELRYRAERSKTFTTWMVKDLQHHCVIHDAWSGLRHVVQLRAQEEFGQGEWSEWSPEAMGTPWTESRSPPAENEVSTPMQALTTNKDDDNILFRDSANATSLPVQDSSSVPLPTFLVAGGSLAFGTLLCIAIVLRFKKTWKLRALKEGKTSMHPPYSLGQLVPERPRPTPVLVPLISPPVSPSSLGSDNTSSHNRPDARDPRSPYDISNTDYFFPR
UniProt Q9BXJ3, residues 17-329: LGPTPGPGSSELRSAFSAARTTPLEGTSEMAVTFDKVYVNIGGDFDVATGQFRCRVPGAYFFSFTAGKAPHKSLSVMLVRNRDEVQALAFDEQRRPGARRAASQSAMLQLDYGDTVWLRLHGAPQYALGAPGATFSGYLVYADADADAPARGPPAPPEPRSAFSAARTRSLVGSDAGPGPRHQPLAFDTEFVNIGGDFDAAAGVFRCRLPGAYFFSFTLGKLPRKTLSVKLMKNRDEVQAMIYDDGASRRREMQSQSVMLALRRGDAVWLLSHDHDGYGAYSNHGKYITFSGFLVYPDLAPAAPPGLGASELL
UniProt Q8R066, residues 17-326: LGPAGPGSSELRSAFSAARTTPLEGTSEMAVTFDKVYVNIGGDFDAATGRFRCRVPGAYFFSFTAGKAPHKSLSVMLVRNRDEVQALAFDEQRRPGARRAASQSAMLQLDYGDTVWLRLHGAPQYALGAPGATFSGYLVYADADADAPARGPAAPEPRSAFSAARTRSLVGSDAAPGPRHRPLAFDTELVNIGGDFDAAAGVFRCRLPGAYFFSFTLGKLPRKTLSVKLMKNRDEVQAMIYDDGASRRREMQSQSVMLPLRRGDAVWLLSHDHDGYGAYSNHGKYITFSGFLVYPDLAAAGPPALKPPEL

Experiments:
[1] = molecular target: IL-6 receptor (IL-6R), in Jurkat cell membrane extract (UniProt P08887); assay: radioligand binding; competition: Jurkat cell membrane extract and 125I-CTRP4 with different concentrations of unlabeled CTRP4, OSM or IL-6; 24 hours at 4°C, 25% PEG, γ counter; only the binder purified
[2] = molecular target: IL-6 receptor (IL-6R), in Jurkat cell membrane extract (UniProt P08887); assay: co-IP; membrane protein from Jurkat cell lysates, precipitated with anti-IL-6R antibody and anti-CTRP4 antibody on Protein G Sepharose; lysis buffer 20 mM Tris-HCl pH 7.5, 150 mM NaCl, 0.1% NP-40
[3] = molecular target: T1, IL-6R, endogenous in in vitro-differentiated Th17 cells (mouse (endogenous in Th17 cells)) (UniProt P22272); assay: co-IP; cell membrane extracts from in vitro-differentiated Th17 cells, precipitated with anti-IL-6R, blotted with anti-CTRP4 antibody
T1 sequence: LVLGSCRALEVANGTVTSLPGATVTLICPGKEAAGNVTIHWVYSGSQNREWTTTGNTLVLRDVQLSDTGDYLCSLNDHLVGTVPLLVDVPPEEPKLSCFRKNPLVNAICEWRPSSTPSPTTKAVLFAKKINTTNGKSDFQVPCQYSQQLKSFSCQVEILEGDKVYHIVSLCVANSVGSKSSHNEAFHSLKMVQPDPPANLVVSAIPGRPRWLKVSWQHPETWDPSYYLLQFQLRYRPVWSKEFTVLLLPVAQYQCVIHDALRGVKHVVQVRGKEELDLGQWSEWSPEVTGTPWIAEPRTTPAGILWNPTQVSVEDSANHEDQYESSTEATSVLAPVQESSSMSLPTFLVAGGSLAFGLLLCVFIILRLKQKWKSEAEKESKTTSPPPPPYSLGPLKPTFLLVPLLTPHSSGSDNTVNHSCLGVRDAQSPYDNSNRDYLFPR

[4] = molecular target: IL-6 receptor (IL-6R), in Jurkat cell membrane extract (UniProt P08887); assay: co-IP; Jurkat cells transduced with retrovirus encoding Flag-tagged IL-6 or Flag-tagged IL-6 plus Myc-tagged CTRP4, precipitated with anti-Flag antibody

**Q.** For 125I-CTRP4 (from UniProt Q9BXJ3 17-329), which binding [1] is on record?
**A.** binds

**Q.** For “C1q/TNF-related protein 4 (CTRP4), in Jurkat cells (from UniProt Q9BXJ3 17-329)”, which binding [2] is on record?
**A.** binds

**Q.** For “CTRP4, endogenous in in vitro-differentiated Th17 cells (from UniProt Q8R066 17-326)”, which binding [3] is on record?
**A.** binds

**Q.** For “Myc-tagged CTRP4 (Jurkat) (from UniProt Q9BXJ3 17-329)”, which binding [4] is on record?
**A.** binds
